Measured values reported in the supplement of paper PMC12889115.
This is one part of the list. These are raw signals, not scaled to a control.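 First-pass screen: polymyxin B was added at a level that permeabilizes the Salmonella outer membrane while sparing the inner membrane. DMSO wells, with and without polymyxin B, defined maximum growth. Because plates differed from one another, each plate's data were ranked separately and the compounds with the lowest OD600 were carried forward as hits.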

System: Salmonella enterica serovar Typhimurium SL1344
Assay: bacterial growth OD600 after 18 h with compound and polymyxin B; higher = more bacterial growth (less inhibition)
Settings: 50 µM, Mueller-Hinton broth

Row | SMILES | bacterial growth OD600 (polymyxin B 1 µg/mL) | bacterial growth OD600 (polymyxin B 0.75 µg/mL)
1 | COCCNC(=O)c1ccc(OC)cc1OC1CCN(C(C)CCSC)CC1 (centres undefined) | 1.21 | –
2 | CCOC(=O)N1CCC(N2Cc3cc(C)ccc3OC(c3ccsc3)C2)CC1 (centres undefined) | – | 0.065
3 | CCN1C(=O)CC(CC(=O)N2CCCC(c3ccccc3)CC2)(c2cccc(C(F)(F)F)c2)C1=O (centres undefined) | – | -0.001
4 | C=CCC(=O)N1CCCC(CO)(Cc2ccc(F)cc2F)C1 (centres undefined) | 0.946 | –
5 | Cn1ccnc1C(=O)N1CCC2(CCCN(Cc3ccccc3F)C2)C1 (centres undefined) | 0.759 | –
6 | COCCN1CC(C(=O)NCc2nc(C)c3c(n2)CCCC3)CCC1=O (centres undefined) | 0.846 | –
7 | COCc1ccc(CN2CCCC(C(=O)c3ccc(C(F)(F)F)cc3)C2)o1 (centres undefined) | 0.811 | –
8 | CC(=O)C1CCCN(Cc2cnc(S(=O)(=O)CC(C)C)n2Cc2ccccc2)C1 (centres undefined) | 1.02 | –
9 | OCC1(CCOc2ccccc2)CCN(Cc2ccccc2C(F)(F)F)CC1 | 0.76 | –

An excerpt of these results, tab-delimited:
Row	SMILES	bacterial growth OD600 (polymyxin B 1 µg/mL)	bacterial growth OD600 (polymyxin B 0.75 µg/mL)
2	CCOC(=O)N1CCC(N2Cc3cc(C)ccc3OC(c3ccsc3)C2)CC1 (centres undefined)	–	0.065
4	C=CCC(=O)N1CCCC(CO)(Cc2ccc(F)cc2F)C1 (centres undefined)	0.946	–
